Experimental data from patent publication US5824771A (The Salk Institute for Biological Studies, priority 1997, dated 1998).
One purity is given for all peptides; the source may state it once. Square brackets hold non-standard residues; d marks the D form. Nle = CCCC[C@H](N)C(=O)O

Experiment: general procedure: Boc solid-phase peptide synthesis; MBHA hydrochloride resin (Bachem), about 0.1 to 0.5 mmoles/gm; DCC or DICI; BOP/DIEA for lactam cyclization
Conditions: whole synthesis, scale of the general procedure about 3 grams of resin

Substance | final purity (method not given) (CZE) | further results
(cyclo 30-33)Ac-Ile-Ser-Leu-Asp-Leu-Thr-D-Phe-His-Leu-Leu-Arg-Glu-Val-Leu-Glu-Nle-Ala-Arg-Ala-Glu-Gln-Leu-Ala- Gln-Glu-Ala-His-Lys-Asn-Arg-Lys-Leu-Nle-Glu-Ile-Ile-NH2 | about 98% | –
(cyclo 30-33)Ac-Ser-Leu-Asp-Leu-Thr-D-Phe-His-Leu-Leu-Arg-Glu-Val-Leu-Glu-Nle-Ala-Arg-Ala-Glu-Gln-Leu-Ala-Gln- Glu-Ala-His-Lys-Asn-Arg-Lys-Leu-Nle-Glu-Ile-Ile-NH2 | about 98% | –
H-NDDPPISIDLT[dF]HLLRN[Nle]IE[Nle]ARIENEREEAGKNRKYLDEV-NH2 | – | final purity (method not given) (capillary zone electrophoresis): about 98%
pGlu-Gly-Pro-Pro-Ile-Ser-Ile-Asp-Leu-Ser-D-Leu-Glu-Leu-Leu-Arg-Lys-Nle-Ile- Glu-Ile-Glu-Lys-Gln-Glu-Lys-Glu-Lys- Gln-Glu-Ala-Ala-Lys-Asn-Arg-Leu-Leu-Leu-Asp-Thr-Ile-NH2 | – | final purity (method not given) (capillary zone electrophoresis, side-chain lactam ring, sequence written open): about 98%
